# Percent effect of library compounds

Chains of the proteins cited; added tags and fusions are not shown. Residues count along the entry.
UniProt P9WFT3, whole entry: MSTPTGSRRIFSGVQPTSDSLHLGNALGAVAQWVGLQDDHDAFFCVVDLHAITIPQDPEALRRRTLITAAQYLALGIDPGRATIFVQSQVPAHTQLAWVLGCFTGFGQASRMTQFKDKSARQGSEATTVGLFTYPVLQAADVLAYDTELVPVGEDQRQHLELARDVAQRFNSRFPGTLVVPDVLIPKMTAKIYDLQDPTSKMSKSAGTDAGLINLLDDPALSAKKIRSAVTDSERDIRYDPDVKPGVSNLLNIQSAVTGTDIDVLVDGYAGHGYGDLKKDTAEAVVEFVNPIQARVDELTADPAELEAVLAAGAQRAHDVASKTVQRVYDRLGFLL
UniProt Q4DA54, 1-478: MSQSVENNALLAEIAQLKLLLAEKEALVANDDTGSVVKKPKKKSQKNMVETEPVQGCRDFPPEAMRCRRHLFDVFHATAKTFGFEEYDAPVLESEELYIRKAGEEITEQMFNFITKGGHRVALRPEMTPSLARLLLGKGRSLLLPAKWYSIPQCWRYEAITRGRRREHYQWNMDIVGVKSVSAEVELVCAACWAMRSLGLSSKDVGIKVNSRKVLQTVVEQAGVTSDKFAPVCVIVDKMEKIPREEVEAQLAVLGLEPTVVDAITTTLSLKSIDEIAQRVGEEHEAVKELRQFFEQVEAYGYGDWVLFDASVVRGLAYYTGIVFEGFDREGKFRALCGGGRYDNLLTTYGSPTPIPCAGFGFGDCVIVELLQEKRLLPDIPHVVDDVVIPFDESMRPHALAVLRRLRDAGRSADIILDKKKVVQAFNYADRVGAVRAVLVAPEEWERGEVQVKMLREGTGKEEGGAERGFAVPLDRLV

The values are deposited in ChEMBL (CHEMBL3988442, “University of Dundee, Small-Polar-MMV Screening Library” (2021)).

MtTrpRS: 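Tryptophan-tRNA ligase, Mycobacterium tuberculosis (UniProt P9WFT3). Enzyme assay of tryptophanyl-tRNA synthetase; the read-out is not stated. Tested at 10 µM. Higher most likely means stronger inhibition; the record gives no direction and few retests gave an IC50. About 65,000 compounds were tested under these conditions; 0.098% (about 64) showed 50% or more at least once.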
Leishmania in macrophages: 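Cell assay of Leishmania donovani living inside macrophages; the read-out is not stated. Concentration: 30 µM. Direction is inferred from retests: higher values go with stronger inhibition. Size under these conditions: about 69,000 compounds, about 1,000 of them at 50% or above in at least one test.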
TcHisRS: 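Histidine-tRNA ligase, Trypanosoma cruzi CL Brener (UniProt Q4DA54). Enzyme assay of histidyl-tRNA synthetase; the read-out is not stated. Compounds at 30 µM. Direction is inferred from retests: higher values go with stronger inhibition. Size under these conditions: about 69,000 compounds, about 31 of them at 50% or above in at least one test.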

Results are given as percent effect.
The record does not define 0% and 100%; most values in the screen are far below 50% and negative numbers occur (in some assays of this library far below -100).
Compounds were drawn at random from those tested, without regard to their results.
Two or more numbers in one place are separate tests of the same structure; such repeats can differ widely.
A dash means the value is not listed here; it may have been measured.

Compound	MtTrpRS	Leishmania in macrophages	TcHisRS
CCc1n[nH]c(C2CN(C(=O)c3cncnc3CC)CCO2)n1 (stereo unspecified)	3.45%	15%	3.38%
COCC(=O)N1CCC2(CC1)CCN(Cc1ccccn1)C2=O.O=C(O)C(F)(F)F	-	-12.36%	-
O=C(c1ccc(F)cc1Cl)N1CCC(Nc2cccnn2)CC1	0.2201%	22.19%	0.3802%
[H][C@@]12CNCC[C@]1(O)CCN(CCOc1ccc(C)cc1OC)C2	-	27.67%	-
FC1(F)CCNCC12CCN(c1ncccn1)C2 (stereo unspecified)	-2.468%	8.136%	5.882%
COCC1CCN(C(=O)c2cccc(S(=O)(=O)NC3CCCC3)c2)C1 (stereo unspecified)	-4.862%	-9.143%	0%
CC(C)CC(NC(=O)CSCC(N)=O)c1cccs1 (stereo unspecified)	-1.445%	14.49%	5.882%
COCC1c2c(cnn2C)CCN1C(=O)c1cscn1 (stereo unspecified)	-	-	0%
COc1ccccc1C(=O)Nc1ccc(OC2CCN(C)CC2)cc1	0.07246%	9.453%	-2.513%
[H][C@]12CC[C@]([H])(CN(CC(=O)N(C)C)C1)N(Cc1c(F)cccc1Cl)C2	-	21.71%	-
CC(C)CNC(=O)c1[nH]nc(C2CC2)c1Br	0.1022%	5.915%	0.5525%
CCC(CC)(CNC(C)=O)NC(C)c1ccccc1 (stereo unspecified)	-3.016%	-8.954%	0.4926%
CC(C)CC(CC(C)C)NC(=O)c1ccn(C)c(=O)c1	0.0657%	-2.76%	3.982%
O=C(NCc1cc(=O)n2c(n1)CN(CC1CC1)CCC2)c1ccsc1	-	-	10.55%
Fc1ccc2c(C3=CCN(Cc4nnc(C5CCC5)o4)CC3)c[nH]c2c1	-2.943%	5.812%	15.79%
COCCOc1ccc(NC(=O)N(CC2CCOC2)C2CC2)cn1 (stereo unspecified)	11.73%	41.25%	0.5128%
O=C(Cc1ccc(F)cc1)NCCNS(=O)(=O)C1CCCC1	-1.23%	-0.1266%	9.901%
Fc1ccc(-c2noc(CN3CCC(c4cc[nH]n4)CC3)n2)cc1	1.018%	54.52%	4.124%
CCOCCC(=O)Nc1cccc(Oc2ccccn2)c1	11.97%	-1.472%	5.435%
[H][C@]12CC[C@]([H])(CN(CC(=O)N(C)C)C1)N(C(=O)c1cccnc1SC)C2	-	-82.72%	-
O=C(O)C(F)(F)F.O=C(c1cccnc1)N1CCC2(CC1)CCN(c1ccsc1)C2=O	-	-7.526%	-
O=C1NCCO[C@H]2CN(C(=O)CCc3ccccc3Cl)CC[C@@H]12	9.698%	-	-4.598%
CC(C)CCNC(=O)C(c1cccc(F)c1)N(C)C (stereo unspecified)	1.087%	3.86%	-7.538%
Cc1noc([C@H]2C[C@@H]3CCN(c4nnc(C)s4)C[C@H]3O2)n1	-	-	2.21%
Cc1cccc(C2(CNC(=O)CO)CCCC2)c1	27.62%	-36.62%	5.714%
Cn1cc(CNC(=O)C2CCCN(Cc3cccc(F)c3)C2)cn1 (stereo unspecified)	1.398%	10.52%	1.724%
Cc1cc(C(=O)N2CCC(c3nccn3Cc3ccncc3)CC2)no1	-1.354%	3.401%	-4.959%
Cc1noc(CCNC(=O)C2CSCN2C(=O)C2CCCC2)n1 (stereo unspecified)	-0.9441%	12.59%	3.03%
CS(=O)(=O)N1CCC(C(=O)NC(Cc2ccsc2)c2cccnc2)CC1 (stereo unspecified)	-	-1.678% & -24.25%	8.889%
CCOCC(O)CN1CCN(C(=O)c2ccncc2)CC1 (stereo unspecified)	-3.086%	10.35%	5.911%
Cc1cccnc1C(Cc1ccsc1)NCc1cnc(N(C)C)nc1 (stereo unspecified)	-2.903%	17.18%	13.64%
CCc1nc(C2CCCN2CC(=O)Nc2cc(C)on2)no1 (stereo unspecified)	4.966%	13.36%	1.724%
CCc1nc(C(=O)N2CCN(C)CC2C)nn1-c1ccccc1Cl (stereo unspecified)	-1.462%	12.05%	2.273%
O=C(C1=CCCCC1)N1CCC2(CC1)COC(COc1ccccn1)C2 (stereo unspecified)	8.917%	-	6.011%
Cc1ncnc2c1CCN(C(=O)Cc1ccccn1)CC2	-0.5533%	-	-1.22%
CCS(=O)(=O)NCCNCc1cc(F)ccc1Br	9.05%	-3.722%	5.759%
O=C(NC1CC1)c1cc(Sc2ncccn2)ccn1	1.699%	38.81%	7.772%
OC(CNCc1nnc2ccccn12)c1ccc2c(c1)OCCCO2 (stereo unspecified)	-2.495%	-1.21%	6.957%
COc1ccc(C(NCc2cccc(O)c2)C2CC2)cc1 (stereo unspecified)	1.374%	37.92%	13.36%
CN(C)C(=O)C1CN(c2ccncn2)CCN(C2CCOCC2)C1 (stereo unspecified)	20.23%	-0.7375%	4.981%
CCOCC1CN(C(=O)c2cccn2C)Cc2cnn(CC3CC3)c21.O=C(O)C(F)(F)F (stereo unspecified)	-	0.6553%	-
[H][C@@]12CN(C(=O)c3ccc(C)nc3)C[C@]1([H])CN(c1ncccn1)C2	-	16.55%	-
CCN(CC)Cc1ccc(C(=O)N2CCCC2Cn2cccn2)o1 (stereo unspecified)	-5.031%	33.76%	6.122%
O=C(Cc1csc(-c2ccoc2)n1)NCCCN1CCCCC1	-5.054%	4.281%	6.383%
O=C(O)C(F)(F)F.[H][C@@]12CN(Cc3ccoc3)C[C@H](C(=O)N3CCCCO3)[C@]1([H])CCO2	-	11.3%	-
Cc1cccc(C2CCCN2Cc2nc(N)nc(N(C)C)n2)c1C (stereo unspecified)	0.7342%	37.96%	12%
CCSCCN1CCCN(S(C)(=O)=O)CC1	3.871%	-15.36%	13.13%
O=C(Cn1cc(-c2ccccc2)ncc1=O)NC1CCCCC1	-2.101%	-20%	2.424%
Cc1cc(C)nc(N2CCC(c3c(C(N)=O)sc4ccccc34)C2)n1 (stereo unspecified)	-1.881%	9.362%	10.85%
c1cncc(OCc2noc3c2CN(Cc2cccs2)CC3)c1	3.596%	-	-2.439%
CN(CCCc1nccn1C)C(=O)C1COc2ccccc2C1 (stereo unspecified)	-2.113%	15.62%	1.571%

For reference, 4 entries once more:

{"compound": "O=C(C1=CCCCC1)N1CCC2(CC1)COC(COc1ccccn1)C2", "stereo": "stereo unspecified", "MtTrpRS": 8.917, "TcHisRS": 6.011}
{"compound": "[H][C@@]12CNCC[C@]1(O)CCN(CCOc1ccc(C)cc1OC)C2", "Leishmania in macrophages": 27.67}
{"compound": "COCCOc1ccc(NC(=O)N(CC2CCOC2)C2CC2)cn1", "stereo": "stereo unspecified", "MtTrpRS": 11.73, "Leishmania in macrophages": 41.25, "TcHisRS": 0.5128}
{"compound": "[H][C@]12CC[C@]([H])(CN(CC(=O)N(C)C)C1)N(C(=O)c1cccnc1SC)C2", "Leishmania in macrophages": -82.72}